This note sets out measurements from PubChem BioAssay AID272 (DTP/NCI, 2004).

The test system of this test is Lewis lung carcinoma i.m., BDF1 mice, T/C %. Nature of the test: NCI In Vivo Anticancer Drug Screen. Data for tumor model Lewis Lung Carcinoma (intramuscular) in B6D2F1 (BDF1) mice. In a few lines:
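Mice carrying transplantable tumours received test compound. Survival or tumour size was recorded and expressed as the treated-group value (T) divided by the vehicle-treated control-group value (C).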

The list is a part of this screen's results and no random one: it is rich in T/C values a quarter to a half above the control, in often repeated tests (any T/C) and in doses without a T/C. Further doses and runs are listed elsewhere. T/C is the treated group as % of the vehicle group. Schedules are NCI's codes, read here as Q, the interval in days (D) or hours (H), X, the number of doses. Some entries give survivors of the animals treated and no T/C: the source files T/C as zero there, which appears to mark a toxic dose or a test without result, not a measured value. Some doses without a T/C left all or most animals alive at the check, yet need not have been tolerated: the source hardly ever lists a survival T/C far under the control, and the zero likely stands for such cases as well. Survivors were counted at the toxicity check, usually on the fifth day, unless a day is given; later deaths do not show. Some entries were tested several times; the results are listed from low to high. Some schedules carry Z or #; the key to these is not given. For survival time, this PubChem deposit counts one and a half times the control or more as active, and values a quarter to a half above the control carry no call in these data; other NCI protocols may use other cut-offs. Some T/C values carry the count of animals alive at the toxicity check (mostly the fifth day); without a count, all were alive then.

On to `CCCCCCCCCCCCCCCC(=O)N(C/C=C/CN(CCCN(C)C)C(=O)CCCCCCCCCCCCCCC)CCCN(C)C`, for which the survivor count runs as follows: (T/C endpoint: mean tumor weight (est.), dose: 25.0 mg/kg/injection, schedule: Q01DX011 (ip), vehicle: saline with Tween-80, higher T/C = larger tumour) 1 of 8; (T/C endpoint: median survival time, dose: 25.0 mg/kg/injection, schedule: Q01DX011 (ip), vehicle: saline with Tween-80, higher T/C = longer survival) 1 of 8; (T/C endpoint: median survival time, dose: 50.0 mg/kg/injection, schedule: Q01DX011 (ip), vehicle: saline with Tween-80, higher T/C = longer survival) 0 of 8; (T/C endpoint: median survival time, dose: 100.0 mg/kg/injection, schedule: Q01DX011 (ip), vehicle: saline with Tween-80, higher T/C = longer survival) 0 of 8.
`O=NN(CCCl)C(=O)NCCCl`: the T/C (T/C endpoint: median survival time, dose: 2.0 mg/kg/injection, schedule: Q01DX009 (ip), vehicle: saline + alcohol, higher T/C = longer survival) is 129 % of control; the T/C (T/C endpoint: median survival time, dose: 3.0 mg/kg/injection, schedule: Q01DX011 (ip), vehicle: saline, higher T/C = longer survival) was 144 % of control; the T/C (T/C endpoint: median survival time, dose: 4.0 mg/kg/injection, schedule: Q01DX011 (ip), vehicle: saline, higher T/C = longer survival) is 134 % of control; the T/C (T/C endpoint: median survival time, dose: 6.0 mg/kg/injection, schedule: Q01DX011 (ip), vehicle: other, higher T/C = longer survival) is 130 % of control [7 of 8 alive]; the T/C (T/C endpoint: median survival time, dose: 8.0 mg/kg/injection, schedule: Q01DX009 (ip), vehicle: saline + alcohol, higher T/C = longer survival) is 134 % of control; the T/C (T/C endpoint: median survival time, dose: 8.4 mg/kg/injection, schedule: Q16DX002 (ip), vehicle: saline, higher T/C = longer survival) was 141 % of control. Moreover, the T/C (T/C endpoint: median survival time, dose: 8.4 mg/kg/injection, schedule: Q## X002 (ip), vehicle: saline, higher T/C = longer survival) was 142 % of control; the T/C (T/C endpoint: median survival time, dose: 23.0 mg/kg/injection, schedule: Q01DX001 (sc), vehicle: saline, higher T/C = longer survival) is 145 % of control; the T/C (T/C endpoint: median survival time, dose: 39.0 mg/kg/injection, schedule: Q01DX001 (sc), vehicle: saline, higher T/C = longer survival) is 143 % of control. Further, the survivor count is on record as 10 of 10 (T/C endpoint: median survival time, dose: 2.0 mg/kg/injection, schedule: Q01DX011 (ip), vehicle: saline, higher T/C = longer survival); 8 of 8 (T/C endpoint: median survival time, dose: 5.0 mg/kg/injection, schedule: Q07DX003 (ip), vehicle: saline, higher T/C = longer survival); 8 of 8 (T/C endpoint: median survival time, dose: 8.4 mg/kg/injection, schedule: Q07DX003 (ip), vehicle: saline, higher T/C = longer survival); 8 of 8 (T/C endpoint: median survival time, dose: 10.0 mg/kg/injection, schedule: Q01DX015 (ip), vehicle: saline, higher T/C = longer survival); 4 of 8 (T/C endpoint: median survival time, dose: 12.0 mg/kg/injection, schedule: Q01DX011 (ip), vehicle: other, higher T/C = longer survival); 3 of 8 (T/C endpoint: median survival time, dose: 12.0 mg/kg/injection, schedule: Q01DX011 (ip), vehicle: saline, higher T/C = longer survival). Besides, the survivor count is, setting by setting: (T/C endpoint: median survival time, dose: 16.0 mg/kg/injection, schedule: Q01DX009 (ip), vehicle: saline + alcohol, higher T/C = longer survival) 10 of 10; (T/C endpoint: median survival time, dose: 16.0 mg/kg/injection, schedule: Q01DX011 (ip), vehicle: saline, higher T/C = longer survival) 5 of 10; (T/C endpoint: median survival time, dose: 32.0 mg/kg/injection, schedule: Q01DX011 (ip), vehicle: saline, higher T/C = longer survival) 0 of 10 and 8 of 10; (T/C endpoint: median survival time, dose: 39.0 mg/kg/injection, schedule: Q07DX003 (ip), vehicle: saline, higher T/C = longer survival) 7 of 8; (T/C endpoint: median survival time, dose: 39.0 mg/kg/injection, schedule: Q## X002 (ip), vehicle: saline, higher T/C = longer survival) 4 of 8; (T/C endpoint: median survival time, dose: 40.0 mg/kg/injection, schedule: Q07DX003 (ip), vehicle: saline, higher T/C = longer survival) 8 of 8. Also, the survivor count by setting is: (T/C endpoint: median survival time, dose: 64.0 mg/kg/injection, schedule: Q01DX011 (ip), vehicle: saline, higher T/C = longer survival) 0 of 10; (T/C endpoint: median survival time, dose: 65.0 mg/kg/injection, schedule: Q01DX001 (ip), vehicle: saline, higher T/C = longer survival) 0 of 8; (T/C endpoint: median survival time, dose: 65.0 mg/kg/injection, schedule: Q01DX001 (sc), vehicle: saline, higher T/C = longer survival) 8 of 8; (T/C endpoint: median survival time, dose: 65.0 mg/kg/injection, schedule: Q06DX002 (ip), vehicle: saline, higher T/C = longer survival) 2 of 8; (T/C endpoint: median survival time, dose: 65.0 mg/kg/injection, schedule: Q## X002 (ip), vehicle: saline, higher T/C = longer survival) 0 of 8.
On to `CC[C@]1(O)C[C@H]2CN(CCc3c([nH]c4ccccc34)[C@@](C(=O)OC)(c3cc4c(cc3OC)N(C=O)[C@H]3[C@@](O)(C(=O)OC)[C@H](OC(C)=O)[C@]5(CC)C=CCN6CC[C@]43[C@@H]65)C2)C1`, for which the survivor count runs as follows: (T/C endpoint: mean tumor weight (est.), dose: 0.39 mg/kg/injection, schedule: Q01DX009 (ip), vehicle: water, higher T/C = larger tumour) 0 of 4; (T/C endpoint: mean tumor weight, dose: 0.39 mg/kg/injection, schedule: Q01DX009 (ip), vehicle: water, higher T/C = larger tumour) 3 of 8; (T/C endpoint: mean tumor weight, dose: 0.5 mg/kg/injection, schedule: Q01DX011 (ip), vehicle: water, higher T/C = larger tumour) 1 of 8; (T/C endpoint: median survival time, dose: 0.25 mg/kg/injection, schedule: Q01DX011 (ip), vehicle: water, higher T/C = longer survival) 1 of 10 and 7 of 10; (T/C endpoint: median survival time, dose: 0.39 mg/kg/injection, schedule: Q01DX009 (ip), vehicle: water, higher T/C = longer survival) 3 of 8; (T/C endpoint: median survival time, dose: 0.39 mg/kg/injection, schedule: Q09DX009 (ip), vehicle: water, higher T/C = longer survival) 4 of 8. Also, the survivor count reads like this: (T/C endpoint: median survival time, dose: 0.5 mg/kg/injection, schedule: Q01DX011 (ip), vehicle: water, higher T/C = longer survival) 0 of 10, 1 of 8, 2 of 10; (T/C endpoint: median survival time, dose: 0.65 mg/kg/injection, schedule: Q01DX009 (ip), vehicle: water, higher T/C = longer survival) 0 of 8; (T/C endpoint: median survival time, dose: 1.0 mg/kg/injection, schedule: Q01DX011 (ip), vehicle: water, higher T/C = longer survival) 0 of 10 and 0 of 8; (T/C endpoint: median survival time, dose: 2.0 mg/kg/injection, schedule: Q01DX011 (ip), vehicle: water, higher T/C = longer survival) 0 of 10; (T/C endpoint: median survival time, dose: 4.0 mg/kg/injection, schedule: Q01DX011 (ip), vehicle: water, higher T/C = longer survival) 0 of 10. Also, the T/C (T/C endpoint: mean tumor weight, dose: 0.06 mg/kg/injection, schedule: Q01DX011 (ip), vehicle: water, evaluated on day 12, higher T/C = larger tumour) was 133 % of control; the T/C (T/C endpoint: median survival time, dose: 0.14 mg/kg/injection, schedule: Q01DX009 (ip), vehicle: water, higher T/C = longer survival) was 143 % of control; the T/C (T/C endpoint: median survival time, dose: 0.14 mg/kg/injection, schedule: Q09DX009 (ip), vehicle: water, evaluated on day 10, higher T/C = longer survival) is 125 % of control; the T/C (T/C endpoint: median survival time, dose: 0.14 mg/kg/injection, schedule: Q09DX009 (ip), vehicle: water, evaluated on day 50, higher T/C = longer survival) is 125 % of control; the T/C (T/C endpoint: median survival time, dose: 0.23 mg/kg/injection, schedule: Q09DX009 (ip), vehicle: water, evaluated on day 10, higher T/C = longer survival) is 125 % of control; the T/C (T/C endpoint: median survival time, dose: 0.23 mg/kg/injection, schedule: Q09DX009 (ip), vehicle: water, evaluated on day 50, higher T/C = longer survival) is 125 % of control.
As to `CCN(CC)CCCC(C)Nc1c2ccccc2nc2c(Cl)cccc12` (centres undefined), the survivor count (T/C endpoint: mean tumor weight (est.), dose: 60.0 mg/kg/injection, schedule: Q01DX011 (ip), vehicle: saline, higher T/C = larger tumour) is listed as 1 of 8.
Take `Cc1c2c(ccc3ccccc32)c[n+]2ccccc12`: under “T/C endpoint: median survival time, dose: 20.0 mg/kg/injection, schedule: Q01DX011 (ip), vehicle: saline, higher T/C = longer survival”, the survivor count is 0 of 8.
